Reference: PubChem BioAssay AID504834 (National Center for Advancing Translational Sciences (NCATS), 2011)
About 22,000 (6.9%) of roughly 320,000 compounds were called active. This list was built around the results that the source calls inconclusive (neither active nor inactive); the mix of calls is not that of the screen. Calls follow the shape of the dose curve; as a rule, active = well fitted inhibition curve with a large enough effect; inconclusive = small, poorly fitted or top-dose-only effect, or another doubt; inactive = no such curve, though single readings can be large or run the other way. A potency beside an inconclusive call is a rough fit, not a confirmed value.

Experiment: Primary qHTS for delayed death inhibitors of the malarial parasite plastid, 96 hour incubation
Conditions: P. falciparum luciferase reporter growth; series mostly up to 28.7 µM
Method in brief: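 Compounds incubated with erythrocytes infected by luciferase-expressing P. falciparum (2% hematocrit, 0.05% parasitemia final) for 96 hours, 37 C in 5% CO2. Growth inhibition scored as decreased luciferase luminescence.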
Potency is read from the fitted curve at half-maximal effect.

| Compound | Potency |
| --- | --- |
| CN(C)c1ccc(NC(=O)N2CCOCC2)cc1 | inconclusive: 18.5 µM [inhibitor, single point] |
| O=Cc1cnc(N2CCCCC2)s1 | inactive |
| COc1cc2[nH]c(=O)n(CCC(=O)N3CCc4ccccc4C3)c(=O)c2cc1OC | inactive |
| Fc1cccc(Cn2cc(C(=S)N3CCCCC3)c3ccccc32)c1 | inconclusive: 10.4 µM [inhibitor, partial curve, poor fit] |
| O=C(NCc1cccs1)C(=O)NCC(c1ccco1)N1CCN(c2ccccc2F)CC1 (stereo not drawn) | inconclusive: 9.28 µM [inhibitor, partial curve] |
| O=C(Nc1ccccc1F)c1cc(C(=O)Nc2ccccc2F)cc([N+](=O)[O-])c1 | inconclusive: 18.5 µM [inhibitor, single point] |
| O=C(CCC1CCCC1)Nc1cccc(Cc2ccncc2)c1 | inactive |
| Cc1ccc(C(=O)OC(C)C(=O)NC2CCCCC2C)s1 (stereo not drawn) | inconclusive: 18.5 µM [inhibitor, single point] |
| Cc1[nH]c2ccccc2c1C(=O)CN1CCN(C2CCCCC2)CC1 | inactive |
| Cc1c(NC(=O)c2ccc3c(c2)OCO3)cccc1-c1nc2ncccc2o1 | inconclusive: 9.28 µM [inhibitor, partial curve, poor fit] |
| Cc1ccc(C(=O)OCC(=O)Nc2ccc(N(C)C)cc2)cc1NC(=O)c1ccco1 | inconclusive: 4.65 µM [inhibitor, partial curve, poor fit] |
| COc1cccc(OC)c1C(=O)Nc1cccc(-c2ccc3nncn3n2)c1 | inconclusive: 2.62 µM [inhibitor, single point] |
| COc1ccccc1Oc1coc2c(CN3CCN(C)CC3)c(O)ccc2c1=O | inconclusive: 9.28 µM [inhibitor, partial curve] |
| COc1ccc(C2=CSC3=NNC4(CCCCC4)NN23)cc1 | inconclusive: 11.7 µM [inhibitor, partial curve, poor fit] |
| COc1ccc(C(=O)OCCNC(=O)c2c(Cl)nc3ccccn23)cc1 | inconclusive: 18.5 µM [inhibitor, single point] |
| Cc1nc(-c2cccnc2)sc1C(=O)Nc1ccc(F)cc1F | inactive |
| Cc1ccc(-n2nnnc2SCC(=O)NC(C(=O)O)(c2ccccc2)c2ccccc2)cc1C | inactive |
| O=C(CCCn1c(=S)[nH]c2ccsc2c1=O)NCc1ccco1 | inconclusive: 18.5 µM [inhibitor, single point] |
| Cc1ccc(SCC(=O)OCC(=O)NC(C)c2ccc(Br)cc2)cc1 (stereo not drawn) | inconclusive: 18.5 µM [inhibitor, single point] |
| Cc1noc(/C=C/c2ccccn2)c1[N+](=O)[O-] | inactive |
| CN(C)CCNC(=O)CCn1nc(-c2ccc(Cl)cc2)ccc1=O | inconclusive: 16.5 µM [inhibitor, single point] |
| COc1ccccc1P(=O)(Cc1ccccc1)c1ccccc1 (stereo not drawn) | inactive |
| CC(Sc1nc2ccccc2c(=O)n1CC1CCCO1)C(=O)N(C)c1ccccc1 (stereo not drawn) | inconclusive: 5.22 µM [inhibitor, partial curve] |
| CCn1c(CNC(=O)c2ccc(OC)c(OC)c2)nnc1SCC(=O)Nc1ccccc1 | inconclusive: 18.5 µM [inhibitor, single point] |
| COc1cccc(Nc2nnc(SCc3nc4ccccc4s3)s2)c1 | inactive |

| Compound | Potency |
| --- | --- |
| O=C(c1ccc(OC2CCN(Cc3ccc(F)cc3)CC2)cc1)N1CCCC1 | inconclusive: 18.5 µM [inhibitor, single point] |
| COc1ccc(N(CC(=O)NCc2ccccc2C)S(=O)(=O)c2ccccc2[N+](=O)[O-])c(OC)c1 | active: 10.4 µM |
| CCN(CC(=O)NCc1ccc(Cl)cc1)C(=O)CN1C(=O)NC(C)(c2ccccc2)C1=O (stereo not drawn) | inconclusive: 2.62 µM [inhibitor, single point] |
| CN(Cc1ccccc1)C(=O)c1nc[nH]c1C(=O)N1CCc2ccccc2C1 | inconclusive: 10.4 µM [inhibitor, single point] |
| Cc1ccc(C)c2nc3sc(C(=O)O)cc3cc12 | inactive |
| Cc1ccc(C(=O)N(Cc2ccccc2)C(C)(C)C)cc1C | inconclusive: 18.5 µM [inhibitor, partial curve, poor fit] |
| O=C(NC1CCS(=O)(=O)C1)/C(=C\c1ccc(F)cc1)NC(=O)c1ccccc1 (stereo not drawn) | inconclusive: 0.329 µM [inhibitor, full curve, poor fit] |
| CCOc1ccc(OCCOC(=O)CNC(=O)c2ccc(Cl)cc2Cl)cc1 | inactive |
| CCN(CC(=O)Nc1c(F)cccc1F)C(=O)CNC(=O)C1CCCCC1 | inactive |
| CCS(=O)(=O)N1CCCC(C(=O)NCCCN2CCCC2=O)C1 (stereo not drawn) | active: 10.4 µM |
| Cc1cccc(-c2n[nH]c(=S)n2/N=C/c2cccs2)c1 | inactive |
| COc1ccc(C2=NN(C(=O)CCC(=O)O)C(c3ccc(OC)cc3)C2)cc1 (stereo not drawn) | inconclusive: 11.7 µM [inhibitor, single point] |
| Cc1cc(C)c2cc(CN(CCO)C(=O)Nc3ccc(Cl)cc3)c(=O)[nH]c2c1 | inconclusive: 4.15 µM [inhibitor, partial curve] |
| C/C(=N\NC(=O)c1nonc1N)c1cccs1 | inactive |
| COCCCn1c(C(=O)NC2CCCCC2C)cc2c(=O)n3cccc(C)c3nc21 (stereo not drawn) | inconclusive: 11.7 µM [inhibitor, single point] |
| Cc1ccc(Cl)cc1NC(=S)N(CCCN1CCN(C)CC1)Cc1ccco1 | inconclusive: 13.1 µM [inhibitor, single point] |
| Cc1cc(C)nc(SCC(=O)NNC(=O)c2cccs2)n1 | inactive |
| COc1cccc(CNc2ncc(-c3ccccc3)n2C)c1 | inconclusive: 9.28 µM [inhibitor, partial curve] |
| COc1ccc2nc3c(cc2c1)c(NC(=O)CC(C)C)nn3CC(C)C | inconclusive: 10.4 µM [inhibitor, partial curve, poor fit] |
| Cc1onc(-c2c(F)cccc2Cl)c1C(=O)OCc1cnc(Cl)s1 | inconclusive: 13.1 µM [inhibitor, single point] |
| Cc1ccc(C(C(=O)NC2CCCCC2)N(Cc2ccco2)C(=O)Cc2c[nH]c3ccccc23)o1 (stereo not drawn) | inconclusive: 10.4 µM [inhibitor, partial curve, poor fit] |
| COC(=O)Oc1ccc(/C=C/C(=O)OC(C)C)cc1OC(=O)OC | inactive |
| O=C(NCC(=O)N1CCOCC1)c1ccc(Br)o1 | inactive |
| NS(=O)(=O)c1ccc(CCNCc2cccs2)cc1 | inconclusive: 1.85 µM [inhibitor, partial curve] |
| CCN1/C(=C\C=C(C(C)=O)C(C)=O)Sc2ccccc21 | inactive |

| Compound | Potency |
| --- | --- |
| O=C(Nc1cccc(NC(=O)c2cccc(Cl)c2)c1)c1cccnc1 | inconclusive: 4.15 µM [inhibitor, partial curve, poor fit] |
| CCC(=O)Nc1ccc(C(=O)N/N=C/c2ccc([N+](=O)[O-])cc2)cc1 | inconclusive: 18.5 µM [inhibitor, single point] |
| O=C(Nc1ccc(Cl)c(Cl)c1)NC1CCS(=O)(=O)C1 (stereo not drawn) | inactive |
| CC(=O)Oc1ccc(C(=O)[C@H]2[C@H]3C(=O)N(c4ccc5ccccc5c4)C(=O)[C@H]3[C@@H]3C=CC=NN32)cc1 | inactive |
| CCOC(=O)Cc1csc(NC(=O)CCCc2ccccc2)n1 | inactive |
| c1ccc(-c2cc(N3CCOCC3)nc3ccccc23)cc1 | inactive |
| CC(C(=O)NCC1CCCCC1)N(C)CC(=O)Nc1ccc(N2CCOCC2)cc1 (stereo not drawn) | inactive |
| CCc1ccccc1OCC(=O)Nc1nc(-c2cccnc2)cs1 | active: 4.15 µM |
| COC(=O)[C@H](C)NC(=O)Nc1ccc(Oc2ccccc2)cc1 | inconclusive: 8.28 µM [inhibitor, partial curve, poor fit] |
| CC(/C=C1\SC(=S)N(CCC(=O)Nc2cccc(C(=O)O)c2)C1=O)=C\c1ccccc1 | inconclusive: 13.1 µM [inhibitor, partial curve] |
| CC12C(=O)N(c3ccccc3)C(=O)C1C(c1ccccc1)N1CCCN12 (stereo not drawn) | inactive |
| Cn1c(-c2ccc3c(c2)OCO3)cnc1N | inconclusive: 18.5 µM [inhibitor, single point] |
| CN(CC(=O)Nc1ccncc1)S(=O)(=O)c1ccc(Br)cc1 | inconclusive: 8.28 µM [inhibitor, single point] |
| CC(C)N1C(=O)CCC1C(=O)NCc1ccco1 (stereo not drawn) | inconclusive: 18.5 µM [inhibitor, single point] |
| COc1cccc(N2CCN(C(=O)c3cc4c(s3)-c3ccccc3OC4)CC2)c1 | active: 4.15 µM |
| COc1cc2c3nnc(-c4ccc(F)cc4)c-3cn(Cc3ccc(F)cc3)c2cc1OC | inconclusive: 11.7 µM [inhibitor, single point] |
| O=C(Cn1nc(-c2cccc([N+](=O)[O-])c2)c2ccccc2c1=O)Nc1cccnc1 | inconclusive: 4.15 µM [inhibitor, partial curve, poor fit] |
| Cc1cccc(NC2=NC(C)(C)N=C(N)N2)c1 | inactive |
| O=C1NCCN(Cc2ccoc2)C1CC(=O)N(CCO)Cc1ccccc1 (stereo not drawn) | inconclusive: 11.7 µM [inhibitor, single point] |
| Cc1cc(Cl)c(S(=O)(=O)N2CCN(c3ccccn3)CC2)cc1OCC(N)=O | inconclusive: 18.5 µM [inhibitor, single point] |
| COc1cc(NS(=O)(=O)c2cn(C)cn2)cc(OC)c1OC | inconclusive: 13.1 µM [inhibitor, single point] |
| CN(CC(=O)NCCc1ccc(F)cc1)CC(=O)Nc1ccc(F)c(F)c1F | inactive |
| Cc1cccc(CSCc2ccc(C(=O)NC3CCCC3)o2)c1 | inactive |

Some of the entries so far, with tabs:
Compound	Potency
COc1ccccc1Oc1coc2c(CN3CCN(C)CC3)c(O)ccc2c1=O	inconclusive: 9.28 µM [inhibitor, partial curve]
Cc1ccc(-n2nnnc2SCC(=O)NC(C(=O)O)(c2ccccc2)c2ccccc2)cc1C	inactive
O=C(CCCn1c(=S)[nH]c2ccsc2c1=O)NCc1ccco1	inconclusive: 18.5 µM [inhibitor, single point]
CCOC(=O)Cc1csc(NC(=O)CCCc2ccccc2)n1	inactive
CC(/C=C1\SC(=S)N(CCC(=O)Nc2cccc(C(=O)O)c2)C1=O)=C\c1ccccc1	inconclusive: 13.1 µM [inhibitor, partial curve]
